# The list shows a part of the results. The data scatter; read single values as rough.
# The chains behind the UniProt entries cited, without tags or fusion partners. Where a name states a change or a piece, a line headed by the entry shows the natural chain unless it says otherwise. Residues count along the entry.
# UniProt Q9BUK6: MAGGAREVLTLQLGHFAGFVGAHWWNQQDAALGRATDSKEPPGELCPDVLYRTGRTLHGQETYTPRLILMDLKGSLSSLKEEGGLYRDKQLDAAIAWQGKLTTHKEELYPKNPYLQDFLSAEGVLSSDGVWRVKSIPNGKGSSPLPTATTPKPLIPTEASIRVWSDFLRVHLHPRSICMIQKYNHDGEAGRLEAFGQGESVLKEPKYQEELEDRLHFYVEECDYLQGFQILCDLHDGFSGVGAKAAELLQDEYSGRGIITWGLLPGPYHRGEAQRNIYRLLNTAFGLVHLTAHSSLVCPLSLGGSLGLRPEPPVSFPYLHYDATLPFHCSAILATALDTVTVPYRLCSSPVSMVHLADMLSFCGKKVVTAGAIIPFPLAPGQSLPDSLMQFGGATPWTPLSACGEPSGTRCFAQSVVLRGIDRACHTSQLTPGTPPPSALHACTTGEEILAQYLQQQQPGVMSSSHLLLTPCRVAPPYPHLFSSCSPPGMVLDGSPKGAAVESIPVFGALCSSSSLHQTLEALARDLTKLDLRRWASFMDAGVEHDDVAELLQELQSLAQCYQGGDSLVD
# UniProt P43246, whole entry, looked up: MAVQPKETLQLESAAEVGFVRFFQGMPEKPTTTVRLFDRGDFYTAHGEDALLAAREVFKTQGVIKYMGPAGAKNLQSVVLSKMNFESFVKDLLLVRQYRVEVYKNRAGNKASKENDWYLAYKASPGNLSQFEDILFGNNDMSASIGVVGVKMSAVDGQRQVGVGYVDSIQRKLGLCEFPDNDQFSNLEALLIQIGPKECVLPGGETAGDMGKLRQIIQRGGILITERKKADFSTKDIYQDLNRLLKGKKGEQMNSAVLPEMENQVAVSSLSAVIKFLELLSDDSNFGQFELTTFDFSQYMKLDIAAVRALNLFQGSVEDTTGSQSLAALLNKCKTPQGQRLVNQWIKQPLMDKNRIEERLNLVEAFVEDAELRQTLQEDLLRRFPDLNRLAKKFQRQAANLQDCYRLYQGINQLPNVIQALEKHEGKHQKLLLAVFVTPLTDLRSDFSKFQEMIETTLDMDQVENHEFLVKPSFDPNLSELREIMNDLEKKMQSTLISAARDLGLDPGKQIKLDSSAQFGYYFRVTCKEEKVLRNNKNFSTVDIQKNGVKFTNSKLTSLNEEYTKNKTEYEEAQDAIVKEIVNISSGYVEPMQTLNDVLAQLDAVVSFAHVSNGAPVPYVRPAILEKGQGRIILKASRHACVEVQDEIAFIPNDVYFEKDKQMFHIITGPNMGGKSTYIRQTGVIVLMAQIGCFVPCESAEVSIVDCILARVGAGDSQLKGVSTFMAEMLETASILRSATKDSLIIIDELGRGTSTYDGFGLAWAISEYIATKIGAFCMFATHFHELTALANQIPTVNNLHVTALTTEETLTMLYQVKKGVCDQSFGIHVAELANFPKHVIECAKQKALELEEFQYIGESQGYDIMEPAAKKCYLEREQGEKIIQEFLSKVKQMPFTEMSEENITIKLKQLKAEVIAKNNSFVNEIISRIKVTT
# UniProt Q9NYA4, 744-766: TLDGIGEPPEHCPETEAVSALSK
# UniProt P42285, 101-128: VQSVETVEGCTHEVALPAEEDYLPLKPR
# UniProt O95544, 78-97: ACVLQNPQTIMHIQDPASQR
# UniProt P35580, whole entry, looked up: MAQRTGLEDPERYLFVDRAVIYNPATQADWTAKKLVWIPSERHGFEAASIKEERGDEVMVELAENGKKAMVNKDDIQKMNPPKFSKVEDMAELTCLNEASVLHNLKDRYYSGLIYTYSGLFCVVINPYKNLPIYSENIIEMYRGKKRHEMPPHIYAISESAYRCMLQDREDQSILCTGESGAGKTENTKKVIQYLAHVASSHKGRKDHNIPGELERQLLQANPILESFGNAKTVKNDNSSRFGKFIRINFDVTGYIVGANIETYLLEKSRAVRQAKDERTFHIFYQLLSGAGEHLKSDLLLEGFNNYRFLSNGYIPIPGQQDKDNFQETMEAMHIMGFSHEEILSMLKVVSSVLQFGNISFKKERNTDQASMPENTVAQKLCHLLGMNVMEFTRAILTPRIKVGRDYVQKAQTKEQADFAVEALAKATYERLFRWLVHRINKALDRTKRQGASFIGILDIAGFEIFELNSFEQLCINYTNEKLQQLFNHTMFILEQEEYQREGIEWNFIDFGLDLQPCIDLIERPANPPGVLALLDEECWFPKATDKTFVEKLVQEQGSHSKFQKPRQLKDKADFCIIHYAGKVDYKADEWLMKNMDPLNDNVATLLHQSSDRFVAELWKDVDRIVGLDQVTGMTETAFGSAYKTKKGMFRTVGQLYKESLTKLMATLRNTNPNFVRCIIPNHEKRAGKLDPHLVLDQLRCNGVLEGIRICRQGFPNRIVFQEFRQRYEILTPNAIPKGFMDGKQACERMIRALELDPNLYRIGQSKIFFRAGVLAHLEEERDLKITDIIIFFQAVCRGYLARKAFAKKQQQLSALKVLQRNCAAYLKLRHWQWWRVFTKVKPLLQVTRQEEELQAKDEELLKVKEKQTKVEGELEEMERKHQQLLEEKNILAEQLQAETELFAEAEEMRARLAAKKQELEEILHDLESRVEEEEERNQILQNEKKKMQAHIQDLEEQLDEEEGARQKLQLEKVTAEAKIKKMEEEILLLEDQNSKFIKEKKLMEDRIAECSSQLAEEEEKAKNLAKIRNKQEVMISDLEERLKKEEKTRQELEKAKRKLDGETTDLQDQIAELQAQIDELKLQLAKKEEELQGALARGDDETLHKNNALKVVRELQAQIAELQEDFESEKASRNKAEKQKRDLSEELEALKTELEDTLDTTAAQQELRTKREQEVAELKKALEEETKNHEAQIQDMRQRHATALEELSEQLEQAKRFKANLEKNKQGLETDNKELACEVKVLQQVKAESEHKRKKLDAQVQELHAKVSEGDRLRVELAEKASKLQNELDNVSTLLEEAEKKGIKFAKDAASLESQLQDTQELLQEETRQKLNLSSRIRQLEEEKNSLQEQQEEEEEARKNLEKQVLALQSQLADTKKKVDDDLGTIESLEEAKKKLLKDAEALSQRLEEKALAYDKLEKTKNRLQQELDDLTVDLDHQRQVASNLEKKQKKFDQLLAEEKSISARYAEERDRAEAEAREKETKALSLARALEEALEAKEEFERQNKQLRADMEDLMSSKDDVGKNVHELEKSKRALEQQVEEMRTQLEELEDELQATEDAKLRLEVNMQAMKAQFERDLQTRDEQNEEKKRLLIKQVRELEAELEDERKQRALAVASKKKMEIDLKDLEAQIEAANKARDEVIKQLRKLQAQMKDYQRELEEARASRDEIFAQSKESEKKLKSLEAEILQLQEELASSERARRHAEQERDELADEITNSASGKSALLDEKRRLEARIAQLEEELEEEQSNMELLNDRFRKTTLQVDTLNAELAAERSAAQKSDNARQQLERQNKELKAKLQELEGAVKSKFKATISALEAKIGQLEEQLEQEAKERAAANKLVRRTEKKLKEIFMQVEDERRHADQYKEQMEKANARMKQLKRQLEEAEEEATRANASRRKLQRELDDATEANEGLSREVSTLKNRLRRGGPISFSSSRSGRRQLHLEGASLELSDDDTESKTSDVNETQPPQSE
# UniProt B2RTY4: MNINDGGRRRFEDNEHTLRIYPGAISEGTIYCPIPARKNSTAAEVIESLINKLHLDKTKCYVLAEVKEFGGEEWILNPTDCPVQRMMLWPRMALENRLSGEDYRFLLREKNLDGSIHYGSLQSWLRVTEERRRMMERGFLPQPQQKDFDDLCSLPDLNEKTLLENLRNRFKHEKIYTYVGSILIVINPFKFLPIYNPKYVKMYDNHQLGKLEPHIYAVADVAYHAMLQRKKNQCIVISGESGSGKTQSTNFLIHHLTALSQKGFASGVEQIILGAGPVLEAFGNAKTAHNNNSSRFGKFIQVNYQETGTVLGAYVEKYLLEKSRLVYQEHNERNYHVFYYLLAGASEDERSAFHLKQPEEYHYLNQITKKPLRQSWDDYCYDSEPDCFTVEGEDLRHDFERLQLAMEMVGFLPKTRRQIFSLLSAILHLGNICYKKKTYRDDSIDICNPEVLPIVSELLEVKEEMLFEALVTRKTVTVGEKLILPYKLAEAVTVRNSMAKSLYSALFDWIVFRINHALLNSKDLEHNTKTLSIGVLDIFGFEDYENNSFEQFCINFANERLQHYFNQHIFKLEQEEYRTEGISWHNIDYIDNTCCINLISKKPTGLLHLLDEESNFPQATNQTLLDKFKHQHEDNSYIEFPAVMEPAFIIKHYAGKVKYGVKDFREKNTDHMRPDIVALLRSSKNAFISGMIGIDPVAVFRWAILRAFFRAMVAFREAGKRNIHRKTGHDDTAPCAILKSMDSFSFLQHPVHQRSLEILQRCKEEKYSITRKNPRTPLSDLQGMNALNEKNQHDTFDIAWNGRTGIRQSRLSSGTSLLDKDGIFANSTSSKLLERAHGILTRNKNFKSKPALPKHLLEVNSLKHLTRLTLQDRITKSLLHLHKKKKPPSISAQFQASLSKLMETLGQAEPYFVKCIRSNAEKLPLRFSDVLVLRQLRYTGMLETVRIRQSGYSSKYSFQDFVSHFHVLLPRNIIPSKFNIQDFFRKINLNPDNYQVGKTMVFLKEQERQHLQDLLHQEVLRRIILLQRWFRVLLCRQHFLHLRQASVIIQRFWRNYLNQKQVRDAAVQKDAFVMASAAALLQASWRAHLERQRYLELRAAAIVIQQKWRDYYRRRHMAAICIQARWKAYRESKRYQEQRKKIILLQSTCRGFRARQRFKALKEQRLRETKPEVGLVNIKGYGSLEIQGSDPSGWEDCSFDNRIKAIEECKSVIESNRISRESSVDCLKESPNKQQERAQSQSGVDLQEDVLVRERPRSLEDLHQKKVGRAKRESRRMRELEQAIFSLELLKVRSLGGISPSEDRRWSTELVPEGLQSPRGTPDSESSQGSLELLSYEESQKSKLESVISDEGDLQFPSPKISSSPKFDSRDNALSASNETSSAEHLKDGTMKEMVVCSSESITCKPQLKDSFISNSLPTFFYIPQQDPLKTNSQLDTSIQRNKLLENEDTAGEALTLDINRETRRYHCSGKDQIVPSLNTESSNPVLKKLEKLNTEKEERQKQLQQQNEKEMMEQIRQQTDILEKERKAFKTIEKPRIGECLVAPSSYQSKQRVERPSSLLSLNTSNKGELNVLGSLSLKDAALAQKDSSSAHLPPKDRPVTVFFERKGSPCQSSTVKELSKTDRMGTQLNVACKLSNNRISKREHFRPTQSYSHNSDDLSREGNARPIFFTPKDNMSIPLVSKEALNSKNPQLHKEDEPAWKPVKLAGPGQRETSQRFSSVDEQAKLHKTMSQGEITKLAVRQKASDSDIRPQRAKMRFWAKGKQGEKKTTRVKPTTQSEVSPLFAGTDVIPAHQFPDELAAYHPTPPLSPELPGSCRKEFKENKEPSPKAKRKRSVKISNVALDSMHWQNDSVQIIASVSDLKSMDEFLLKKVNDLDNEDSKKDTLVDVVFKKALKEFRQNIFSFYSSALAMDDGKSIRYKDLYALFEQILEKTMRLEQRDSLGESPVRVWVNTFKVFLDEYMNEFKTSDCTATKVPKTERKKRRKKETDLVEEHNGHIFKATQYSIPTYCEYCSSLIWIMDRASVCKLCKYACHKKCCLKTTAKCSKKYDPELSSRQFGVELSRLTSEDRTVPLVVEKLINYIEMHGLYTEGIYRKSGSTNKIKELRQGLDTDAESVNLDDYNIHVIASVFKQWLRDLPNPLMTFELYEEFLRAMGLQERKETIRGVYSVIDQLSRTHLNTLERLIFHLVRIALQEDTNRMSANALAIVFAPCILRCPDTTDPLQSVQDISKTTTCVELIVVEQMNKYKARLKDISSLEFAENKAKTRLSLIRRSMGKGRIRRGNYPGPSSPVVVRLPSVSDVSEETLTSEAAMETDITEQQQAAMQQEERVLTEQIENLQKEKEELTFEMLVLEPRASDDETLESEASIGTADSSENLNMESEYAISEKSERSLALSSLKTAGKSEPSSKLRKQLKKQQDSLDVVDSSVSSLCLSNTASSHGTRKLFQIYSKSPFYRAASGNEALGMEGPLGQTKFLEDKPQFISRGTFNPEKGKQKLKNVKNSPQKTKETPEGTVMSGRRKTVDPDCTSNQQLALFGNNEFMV
# UniProt Q9GZZ1: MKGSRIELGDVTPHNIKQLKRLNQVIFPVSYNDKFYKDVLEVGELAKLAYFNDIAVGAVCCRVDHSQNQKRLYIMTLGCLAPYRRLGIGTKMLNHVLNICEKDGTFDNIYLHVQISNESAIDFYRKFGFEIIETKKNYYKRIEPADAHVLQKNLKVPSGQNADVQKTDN
# Assays:
# [1] = compound: ClCC(=O)N[C@@H]1CCCc2ccccc12; test: log2 mean competition ratio of IA-DTB cysteine labelling (DMSO/compound) (log2 ratio); higher = stronger cysteine engagement by compound; settings: treatment time: 4 h, cell line lysate: HEK293T
# Protocol: (§1)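 IA-DTB competitive cysteine chemoproteomics in HEK293T RIPA lysate. Lysates were treated with compound 29 or 30 at 50 or 200 µM for 4 h, then IA-DTB (500 µM, 1 h), trypsin-digested, NeutrAvidin-enriched and analysed by diaPASEF. Competition ratio = intensity DMSO / intensity compound (n=4 treated, n=64 DMSO); binding: mean log2 CR ≥ 1 and p ≤ 0.05 plus QC filters. Target is the cysteine site.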
# [2] = compound: ClCC(=O)N[C@H]1CCCc2ccccc12; test: as above; settings: treatment time: 4 h, cell line lysate: HEK293T
# Protocol: as §1
Target,log2 mean competition ratio ([1]; 50 µM),log2 mean competition ratio ([1]; 200 µM),log2 mean competition ratio ([2]; 50 µM),log2 mean competition ratio ([2]; 200 µM)
MYO1D C97 (UniProt O94832),0.0828,-0.377,0.371,-0.202
MSTO1 C46 (UniProt Q9BUK6),-0.0804,0.331,-0.343,0.185
MSH2 C843 (UniProt P43246),-0.0594,0.0988,0.016,-0.031
MSH3 C847 (UniProt P20585),0.0663,0.00809,-0.275,0.0509
NACC1 C416 (UniProt Q96RE7),0.195,0.23,0.137,0.161
MTMR4 C755 (UniProt Q9NYA4),-0.43,0.235,-0.289,-0.062
MSL2 C476 (UniProt Q9HCI7),-0.058,0.0599,0.0396,0.543
MTREX C110 (UniProt P42285),-0.194,-0.345,-0.166,-0.57
NADK C79 (UniProt O95544),0.303,0.0298,0.228,0.0444
MTR C812 (UniProt Q99707),0.0558,0.309,-0.295,0.488
MTOR C1660 (UniProt P42345),-0.0202,-0.0744,0.282,-0.0727
MRPS18A C186 (UniProt Q9NVS2),0.332,0.173,0.458,0.303
MYH10 C701 (UniProt P35580),-0.339,0.00466,-0.132,0.0576
MYCBP2 C1475 (UniProt O75592),0.182,-0.00385,0.113,0.0158
MYO9A C32 (UniProt B2RTY4),-0.39,-0.264,0.0716,-0.269
MTM1 C242 (UniProt Q13496),-0.201,-0.201,-0.256,-0.0142
NAA50 C100 (UniProt Q9GZZ1),0.0202,-0.22,0.184,-0.0333
MTRFR C81,0.0329,0.13,0.375,-0.0288
MYO1D C977 (UniProt O94832),-0.0432,0.132,0.147,0.167
MSH6 C426 (UniProt P52701),-0.0723,-0.207,-0.223,-0.176
MYBBP1A C1046 (UniProt Q9BQG0),0.0458,-0.234,-0.0298,-0.0319
MTARC1 C300,-0.093,0.0103,-0.181,0.0228
MTMR3 C632 (UniProt Q13615),-0.0348,0.199,-0.455,0.651
MRPL44 C136 (UniProt Q9H9J2),0.322,-0.0702,0.827,-0.282
NAA25 C381 (UniProt Q14CX7),-0.00983,-0.152,-0.531,-0.131
NADK2 C311 (UniProt Q4G0N4),0.104,-0.341,-0.1,-0.0957
MTBP C691,0.105,-0.195,-0.155,-0.0904
MSH3 C633 (UniProt P20585),-0.143,-0.144,-0.251,-0.35
NAA30 C195 (UniProt Q147X3),0.29,0.48,0.189,0.265
NAP1L4 C77,0.252,-0.632,0.221,-0.22
